Measured values: PubChem BioAssay AID2685 (National Center for Advancing Translational Sciences (NCATS), 2010)
Hit rate of the full screen: of about 320,000 compounds, about 2,100 (0.66%) were called active. Inconclusive results, whose numbers are uncertain, are shown with a selection of clear calls. The call rests on the fitted dose curve; in most records, active means well fitted inhibition curve with a large enough effect in the signal ratio, with a control signal flat (not every such curve was filed as active); inconclusive means small, poorly fitted or top-dose-only effect, or effect the other way, or a change in a side signal; inactive means flat fitted curve, though single readings scatter; the % refers to the signal ratio. Potencies beside an inconclusive call are fits to weak or partial responses and may not hold up.

Assay: qHTS Assay for Lipid Storage Modulators in Drosophila S3 Cells
Conditions: BODIPY lipid droplet fluorescence, 18-24 h, cells fed with added oleic acid; lipid storage change, negative = inhibition: at 46.1 µM (top of the series) unless noted
Method in brief: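 Laser-scanning cytometry quantifies lipid droplet accumulation (500–530 nm total intensity; droplet/cell object ratio) in oleic acid-fed (400 uM added) Drosophila S3 cells treated with a concentration series. 20 uM Triacsin C defined 100% inhibition.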
On the % scale 0 is the no-effect control and ±100 the full control effect; potency means the concentration at half of the fitted maximal effect.

SMILES	Potency	lipid storage change, negative = inhibition
CC(C)(C)c1ccc(S(=O)(=O)NCC(=O)N2CCCC2)cc1	inconclusive: 20.6 µM [activator, single point]	–
O=CC1=C(N2CCOCC2)/C(=C\c2ccccc2)CC1	–	inactive
O=S(=O)(c1ccc(Oc2ccc(Br)cc2)cc1)N1CCOCC1	active: 13 µM	–
Cc1c(/C=N/n2cnnc2)c2ccccc2n1CCOc1ccccc1	–	inconclusive: 7.01%
O=C1c2ccccc2NC(c2ccccn2)N1c1ccc(Cl)cc1 (stereo not drawn)	–	inconclusive: -26.9%
O=S(=O)(Nc1nc2ccccc2nc1Cl)c1ccc(Br)cc1	–	inconclusive: -0.229%
CC#C[C@]1(O)CC[C@H]2[C@@H]3CCC4=CC(=O)CCC4=C3[C@@H](c3ccc(N(C)C)cc3)C[C@@]21C	–	inconclusive: 28%
Cc1ccc(C(=O)Nc2ccc(S(=O)(=O)NCc3ccco3)cc2)cc1	–	inconclusive: 138%
COc1ccc(C(=O)Nc2nc(C)c(C(C)=O)s2)cc1S(=O)(=O)N1CCOCC1	–	inconclusive: -18%
CN(CC(=O)Nc1ccccc1Cl)C(=O)COC(=O)/C=C/c1cccs1	inconclusive: 0.461 µM [activator, full curve, poor fit]	–
O=C(Oc1cccc(O)c1)C1CCCCC1	inconclusive: 6.51 µM [falling, partial curve, poor fit]	–
O=C(Nc1ccc(NC(=O)c2ccccc2F)cn1)c1ccco1	–	inconclusive: 21.2%
CCOc1ccc(CCNC(=O)C2CC=CCC2C(=O)OC(C)C)cc1OCC (stereo not drawn)	–	inconclusive: -76.1%
O=C(NCCC1=CCCCC1)C1CCN(S(=O)(=O)c2cccc(C(F)(F)F)c2)CC1	inconclusive: 4.61 µM [falling, partial curve, poor fit]	–
O=C(NCc1n[nH]c(=S)n1-c1ccccc1)c1cccs1	–	inconclusive: -18.6%
N#Cc1cn(-c2ccccc2)nc1-c1ccccc1	–	inconclusive: -16.6%
Cc1ccc2[nH]c(=O)c(CN(C(=O)c3cccc([N+](=O)[O-])c3)C(C)(C)C)cc2c1	–	inconclusive: 18.2%
COC(=O)c1cc(NC(=O)c2cccc(C(F)(F)F)c2)c(=O)oc1C/C=N/OCc1cccc(Cl)c1Cl	inconclusive: 0.0046 µM [falling, full curve, poor fit]	–
CCC(C)NC(=O)CC1Oc2ccc(Cl)cc2NC1=O (stereo not drawn)	inconclusive: 0.103 µM [falling, full curve, poor fit]	–
CCCOC(=O)Nc1cc(OC)c(Cl)cc1OC	inconclusive: 29.1 µM [activator, single point]	–
CCN(C(=O)CSc1nc2ccccc2n1CC)C1CCS(=O)(=O)C1 (stereo not drawn)	–	inconclusive: 14.5%
CCOc1ccc(N2C(=O)CC(C(C)c3ccccc3)C2=O)cc1 (stereo not drawn)	–	inconclusive: -23.5%
Cc1cc2nc(-c3ccc(SCC(=O)Nc4ccc(S(=O)(=O)NC5CC5)cc4)nc3)[nH]c2cc1C	–	inconclusive: 7.34%
Cc1cc(C)nc(SCc2nc3ccccc3n2C)n1	inconclusive: 4.11 µM [activator, partial curve]	–

SMILES	Potency	lipid storage change, negative = inhibition
CCCOc1ccc(NC(=O)CC2C(=O)Nc3ccccc3N2CC(=O)N2CCCC2)cc1 (stereo not drawn)	inconclusive: 16.4 µM [activator, single point]	–
O=C(NC1CCCCC1)[C@@H]1CSC2c3ccccc3C(=O)N21 (stereo partly drawn)	–	inconclusive: 40.8%
O=C(NC1CCCCC1)N1CCCCCCC1	–	inconclusive: 10.5%
O=C(Cn1c(=O)oc2ccccc21)Nc1cccc(Cl)c1	–	inconclusive: 22.4%
CCOc1ccc(N=C2SC(C(=O)Nc3ccccc3C#N)C(N)=C2C(=O)Nc2ccc(Cl)cc2)cc1 (stereo not drawn)	–	inconclusive: 21%
CCOc1ccc(NC(=O)C2CCCN2S(=O)(=O)c2ccc3c(c2)C(C)(C)C(=O)N3C)cc1 (stereo not drawn)	inconclusive: 9.2 µM [activator, partial curve]	–
CCCCn1c(N)c(N(CCC(C)C)C(=O)C2=COCCO2)c(=O)[nH]c1=O	inconclusive: 0.517 µM [falling, full curve, poor fit]	–
CCC(CC)NC(=O)COC(=O)c1cccc(C)c1O	inconclusive: 20.6 µM [rising, partial curve]	–
Nc1nnc(N2CCCCCC2)s1	–	inconclusive: -2.48%
COc1cc(/C=C/C(=O)OCC(=O)N2CCC(Cc3ccccc3)CC2)ccc1O	–	inconclusive: 79.6%
C=CCn1c(-c2cccn(Cc3cccc(Cl)c3)c2=O)n[nH]c1=S	inconclusive: 29.1 µM [falling, single point]	–
O=C(/C=C/c1ccco1)NC(=S)Nc1nc(-c2ccc3ccccc3c2)cs1	–	inconclusive: 3.5%
COc1cccc(CC(=O)Nc2ccc(S(=O)(=O)Nc3nc(C)cc(C)n3)cc2)c1	–	inconclusive: -21.9%
CC(=O)c1cccc(NC(=O)N2C3CCCC2CC(NC(=O)C2CC2)C3)c1 (stereo not drawn)	–	inconclusive: 29.1%
CN(CCOC(=O)/C=C/c1ccco1)Cc1ccccc1	–	inconclusive: -0.273%
CCCn1c(SCC(=O)Nc2ccc3c(c2)OCCO3)nnc1-c1ccco1	–	inconclusive: 10.6%
COc1ccc(O[C@H]2C=C[C@@H](c3ccccc3)O[C@@H]2COC(=O)CC/C(C)=N/OC[C@@H](O)[C@H]2O[C@@H]3OC(C)(C)O[C@@H]3[C@H]2O)cc1	–	inconclusive: 25.2%
O=C(NCc1ccccc1)c1cc(=O)c2ccccc2o1	–	inconclusive: -7.49%
Cc1ccc(/C=C/c2nc3ccccc3c(=O)n2CCc2ccccc2)cc1	–	inconclusive: 21.6%
CC(C)OCCCNS(=O)(=O)c1ccc2c(c1)oc(=O)n2C	–	inconclusive: 0.636% [at 9.22 µM]
O=C(NCc1ccc(Cl)cc1)c1cccc2c1C(=O)N(CC1CCCO1)C2 (stereo not drawn)	–	inconclusive: -26.2%
CCCc1cc(=O)oc2c(C)c(OCC(=O)NCCN3CCOCC3)ccc12	–	inactive
CC(C)c1ccc(NC(=O)CN2C(=O)COc3ccc(S(=O)(=O)N4CCOCC4)cc32)cc1	inconclusive: 29.1 µM [activator, single point]	–
COc1ccc(Br)cc1CNC(=O)CCC(=O)n1nc(C)c2ccccc21	–	inactive

Some of the entries so far, as a markdown table:

| SMILES | Potency | lipid storage change, negative = inhibition |
| --- | --- | --- |
| Cc1ccc(C(=O)Nc2ccc(S(=O)(=O)NCc3ccco3)cc2)cc1 | – | inconclusive: 138% |
| Cc1cc2nc(-c3ccc(SCC(=O)Nc4ccc(S(=O)(=O)NC5CC5)cc4)nc3)[nH]c2cc1C | – | inconclusive: 7.34% |
